Results as given in US7062219B2, “Protein fragment complementation assays for high-throughput and high-content screening” (Odyssey Thera Inc., priority 1997, dated 2006).
Entries after “also recorded” stand apart in the source; their conditions may differ. For at least one compound, name, drawing or mass did not settle the structure.

Assays:
PKB/hFt1 complex = assay: GFP PCA for PKB/hFt1 in COS-1 cells, fluorometric analysis and microscopy; assay type: cell-based; conditions: 300 nM wortmannin or 50 micromolar LY294002, 1 hour
Source text: (§1) DNA Constructs. The full-length cDNAs encoding PKB, PDK1, PKCalpha, the catalytic subunit of PKA (PKAc), GSK3beta, BAD, Caspase 9 and FKHRL1 were amplified by PCR and subcloned into the eukaryotic expression vector pMT3 [Kaufman, 1989 #23], 5′ of the F[2] fragment of GFP. GFP[1] corresponds to amino acids 1 to 158 and GFP[2] to amino acids 159 to 239 of GFP and was amplified by PCR from pCMS-EGFP (Clontech). The PKB-GFP[2] fusion was also inserted in a pMT3 vector where the ampicillin resistance gene has been replaced by a chloramphenicol resistance gene (pMT3-chloramphenicol) for the purpose of the cDNA library screen. In all cases, a 10 amino acid flexible linker consisting of (GGGGS)2 (SEQ ID No.1) was inserted between the cDNA and the GFP fragments to assure that the orientation/arrangement of the fusions in space is optimal to bring the protein fragments into close proximity. […]
(§2) COS-1 cells were split in 12-well plates 24 h before transfection. […] The relative amount of reconstituted GFP, a measure of the interaction between the fused protein partners, was detected by fluorometric analysis. […] The background fluorescence intensity corresponding to non-transfected cells was subtracted from the fluorescence intensities of all of the samples. The sub-cellular location of the hFt1/PKB and hFt1/PDK1 protein-protein complexes was also determined by fluorescence microscopy in live cells. […]

PDK1/hFt1 complex = assay: GFP PCA for PDK1/hFt1 in COS-1 cells, fluorometric analysis and microscopy; assay type: cell-based; conditions: 300 nM wortmannin or 50 micromolar LY294002, 1 hour
Source text: as §1, §2

p53/p53 interaction = assay: high-content IFP PCA for p53/p53, nuclear mean fluorescence; assay type: cell-based, human; conditions: unstimulated and 500 nM CPT-stimulated; LY294002 25 micromolar, SB 203580 25 micromolar, Geldanamycin 2.5 micromolar, Trichostatin A 0.5 micromolar
Source text: Open reading frames of full-length human p53 were fused in-frame to the 5′-end of IFP[1] and the 3′-end of IFP[2] to generate the following constructs in a pcDNA3.1 (Invitrogen) backbone: p53-IFP[1] and IFP[2]-p53. The final p53-IFP[1] construct contained a Zeocin selectable marker, while the IFP[2]-p53 construct contained a hygromycin selectable marker. All fusions were through a flexible linker encoding a 10-amino acid peptide (GlyGlyGlyGlySer)2, also referred to throughout as (GGGGS)2 (SEQ ID No.1). […] Isolated DNAs were quantitated and then normalized to a concentration of 50 ng/microliter.
Approximately 24 hours prior to transfection cells were seeded into 96 well poly-D-Lysine coated plates (Greiner) using a Multidrop 384 peristaltic pump system (Thermo Electron Corp., Waltham, Mass.) at a density of 7,500 cells per well. […] Fluorescence resulting from IFP PCA was captured using the Discovery-1automated fluorescence imager (Molecular Devices, Inc.) equipped with a robot arm (CRS Catalyst Express; Thermo Electron Corp., Waltham, Mass.). Images were acquired for YFP fluorescence (excitation filter: 480/40 nm; emission filter 535/50 nm), Hoechst fluorescence (excitation filter: 360/40 nm; emission filter 465/30 nm), and Texas Red fluorescence (excitation filter: 560/50 nm; emission filter 650/40 nm). […]

Row | SMILES | effect on serum- and insulin-induced increase and redistribution of PKB/hFt1 complexes (PKB/hFt1 complex) | effect on serum- and insulin-induced increase and redistribution of PDK1/hFt1 complexes (PDK1/hFt1 complex) | effect on p53/p53 interaction in both assays (absence and presence of CPT) (p53/p53 interaction)
1 | COC[C@H]1OC(=O)c2coc3c2[C@@]1(C)C1=C(C3=O)[C@@H]2CCC(=O)[C@@]2(C)C[C@H]1OC(C)=O [wortmannin] | blocked | blocked | 
2 | O=c1cc(N2CCOCC2)oc2c(-c3ccccc3)cccc12 [LY294002] | blocked | blocked | increased association
3 | COC1=C2C[C@@H](C)C[C@H](OC)[C@H](O)[C@@H](C)/C=C(\C)[C@H](OC(N)=O)[C@@H](OC)/C=C\C=C(/C)C(=O)NC(=CC1=O)C2=O [Geldanamycin] |  |  | decreasing the signal; also recorded: significantly inhibited; also recorded: inhibitory effect
